In PubChem BioAssay AID2685 (National Center for Advancing Translational Sciences (NCATS), 2010):
The list shows a part of the results. Shown are side measurements of this screen, not its main read-out; they come without a call. Compounds called inactive in the main read-out are mostly missing here. Potencies come from curve fits of mixed quality, noted in brackets.

Test: qHTS Assay for Lipid Storage Modulators in Drosophila S3 Cells;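 for cell number change: cells counted by Cell Tracker Red CMTPX staining in the red channel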
Conditions: BODIPY lipid droplet fluorescence, 18-24 h; for cell number change: measured here: cell count max response, cells fed with added oleic acid
Outline: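 Laser-scanning cytometry quantifies lipid droplet accumulation (500–530 nm total intensity; droplet/cell object ratio) in oleic acid-fed (400 uM added) Drosophila S3 cells treated with a concentration series. 20 uM Triacsin C defined 100% inhibition.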

[1] = measured here: lipid fluorescence (Fed channel) AC50, cells fed with added oleic acid
[2] = measured here: cell number channel AC50, cells fed with added oleic acid

Row | SMILES | cell number change | AC50 [1] | AC50 [2]
1 | Nc1nc(NC(=O)c2cccc(S(=O)(=O)N3CCCCCC3)c2)nc(-c2ccccc2)n1 | -6.63% | 0.92 µM [rising, single point] | 
2 | CC(=O)OCCCNc1cc(Sc2nc3ccccc3s2)c2nonc2c1[N+](=O)[O-] | 18.1% | 0.92 µM [falling, full curve, poor fit] | 
3 | O=C(CN(c1ccccc1)S(=O)(=O)c1ccc(Cl)cc1)Nc1ccccc1C(=O)N1CCCC1 | 34.6% | 0.82 µM [falling, single point] | 16.4 µM [rising, single point]
4 | COCCN1CC(C(=O)NCCc2nc(C)c(C)s2)CCC1=O (configuration not stated) | -1.42% |  | 0.058 µM [rising, full curve, poor fit]
5 | O=C(COC(=O)c1cccc(Cl)c1)NC1CCS(=O)(=O)C1 (configuration not stated) | -8.54% |  | 
6 | CCCn1c2ccccc2c2cnn(CC(=O)NCCCN3CCN(c4ccccc4)CC3)c(=O)c21 | -2.09% | 6.51 µM [rising, single point] | 
7 | O=C(CC1OC(=O)c2ccccc21)Nc1cc(S(=O)(=O)N2CCOCC2)ccc1OCC(F)(F)F (configuration not stated) | 29.7% |  | 1.3 µM [rising, full curve, poor fit]
8 | Cc1cc(C)c(C)c(S(=O)(=O)N2CCN(Cc3nc4ccccc4[nH]3)CC2)c1C |  | 29.1 µM [rising, partial curve, poor fit] | 
9 | CCOC(=O)CNC(=O)c1sc(NC(=O)c2ccccc2F)nc1C | -5.25% | 0.291 µM [rising, full curve, poor fit] | 
10 | CCOc1ccccc1N1CCN(C(=O)CC(C)C)CC1 | 75.6% | 16.4 µM [rising, single point] | 18.4 µM [rising, single point]
11 | CC(=O)N1N=C(c2cccc(Cl)c2)OC1c1ccc(C(C)C)cc1 (configuration not stated) | 1.07% | 29.1 µM [falling, single point] | 
12 | CCn1c(/C=C2\C(=O)N(C(C)C)c3ccccc32)nc2ccccc2c1=O | -32.2% |  | 14.6 µM [falling, single point]
13 | CN(C)c1ccc(CN(C(=O)c2cc3ccccc3oc2=O)C2CCS(=O)(=O)C2)cc1 (configuration not stated) | 12% |  | 
14 | O=C(NC1CCCCC1)C(c1ccc2ncccc2c1)N(Cc1ccccc1)C(=O)c1cccs1 (configuration not stated) | 65.7% |  | 23.1 µM [rising, single point]
15 | C=CCn1c(NC(=O)c2ccc(C)cc2)nc2ccccc21 | -13.1% | 0.517 µM [rising, single point] | 
16 | CC(=O)N1N=C(c2ccccc2)CC1c1cccs1 (configuration not stated) | 55% |  | 11.6 µM [rising, partial curve, poor fit]
17 | COC(=O)c1ccc(C(=O)Nc2ccc3nc(-c4cccnc4)[nH]c3c2)cc1 |  | 5.8 µM [rising, full curve] | 
18 | N#Cc1c2c(c(NCCOCCO)n3c1nc1ccccc13)CCCC2 | -28.8% |  | 0.82 µM [falling, full curve, poor fit]
19 | CSCCC(NC(=O)OC(C)(C)C)C(=O)Oc1ccc2c(=O)c(-c3ccc4c(c3)OCCO4)coc2c1 (configuration not stated) | -21.2% | 0.164 µM [falling, full curve, poor fit] | 
20 | COC(=O)CN1C(=O)C(O)(CC(=O)c2ccc(Cl)cc2)c2ccccc21 (configuration not stated) | -1.76% |  | 0.58 µM [falling, single point]

Row | SMILES | cell number change | AC50 [1] | AC50 [2]
21 | Nc1ccccc1NC(=O)CCn1c(=S)[nH]c2ccccc2c1=O | -23.8% | 6.51 µM [falling, single point] | 
22 | O=C(CCCCn1c(=O)[nH]c2ccsc2c1=O)NCc1ccc2c(c1)OCO2 |  | 32.6 µM [rising, single point] | 
23 | N#CC1=C(N)NC(SCC(=O)Nc2ccc(Br)cc2)=C(C#N)C12CCCCC2 | 62.2% | 0.058 µM [rising, full curve, poor fit] | 0.206 µM [rising, full curve]
24 | CC(C)(C)NS(=O)(=O)c1ccc(NC(=O)c2cc(-c3ccccc3)nc3ccccc23)cc1 | 1.55% |  | 
25 | CC(OC(=O)C1CCN(c2ccc(C(F)(F)F)cn2)CC1)C(=O)Nc1cccc([N+](=O)[O-])c1 (configuration not stated) | -4.9% |  | 
26 | COc1cccc(-c2csc(N3CCN(CC(=O)Nc4ccc5c(c4)OCO5)CC3)n2)c1 | -1.33% | 2.91 µM [rising, partial curve] | 
27 | CC1=CCC2C(=O)N(c3ccc(Br)cc3C)C(=O)C2C1 (configuration not stated) | -14.7% | 0.103 µM [rising, full curve, poor fit] | 
28 | CC1(C)CC2CC(C)(CN2C(=O)c2ccc([N+](=O)[O-])cc2[N+](=O)[O-])C1 (configuration not stated) | -111% |  | 
29 | COc1ccc(C(=O)NCCNc2nc3cc(C)c(C)cc3cc2C)cc1 | -18% | 3.26 µM [rising, partial curve, poor fit] | 
30 | O=C(Nc1nnc(-c2cccs2)o1)c1cccc(C(F)(F)F)c1 | -67.1% | 0.0259 µM [falling, full curve] | 29.1 µM [falling, single point]
31 | Cc1cn(C2OC[C@@H](O)[C@@H]2CO)c(=O)[nH]c1=O (some centres not stated) | -15.3% | 29.1 µM [falling, single point] | 
32 | O=C(Nc1ccc(S(=O)(=O)Nc2nccs2)cc1)c1ccc(=O)[nH]c1 | -1.91% | 2.06 µM [falling, partial curve, poor fit] | 
33 | CC(C)(C)c1nnc(N/N=C/c2ccccc2O)n(N)c1=O | -25.6% | 20.6 µM [falling, single point] | 
34 | COc1ccc(CC(=O)N(C)CC(=O)Nc2c(C)cccc2C)cc1S(=O)(=O)N1CCOCC1 | -22.9% |  | 1.46 µM [falling, full curve, poor fit]
35 | CCc1ccc(NC(=O)CSCCN2C(=O)c3ccccc3C2=O)cc1 | -7.38% |  | 6.51 µM [rising, single point]
36 | COc1ccc(S(=O)(=O)N2CCC(O)(c3ccc4c(c3)OCO4)CC2)cc1 | 97.1% | 14.6 µM [rising, partial curve] | 13 µM [rising, partial curve]
37 | COc1ccc(OC)c(/C=C2\S/C(=N/NC(=O)c3ccc4ccccc4c3)NC2=O)c1 | -18.1% |  | 2.06 µM [falling, partial curve, poor fit]
38 | CN(CC(=O)Nc1ccccc1F)CC(=O)Nc1ccc(F)c(F)c1F | -0.82% | 29.1 µM [rising, single point] | 
39 | CC1CCN(S(=O)(=O)c2ccc3c(c2)c(=O)c(C(=O)NCc2cccs2)cn3C)CC1 | 22.4% | 6.51 µM [rising, single point] | 
40 | COC(=O)c1oc2ccc(Br)cc2c1NC(=O)c1ccccc1 | -44.9% |  | 10.3 µM [falling, partial curve]

A draw from above in order of number of heavy atoms, rising:
Row | SMILES | cell number change | AC50 [1] | AC50 [2]
32 | O=C(Nc1ccc(S(=O)(=O)Nc2nccs2)cc1)c1ccc(=O)[nH]c1 | -1.91% | 2.06 µM [falling, partial curve, poor fit] | 
14 | O=C(NC1CCCCC1)C(c1ccc2ncccc2c1)N(Cc1ccccc1)C(=O)c1cccs1 (configuration not stated) | 65.7% |  | 23.1 µM [rising, single point]
19 | CSCCC(NC(=O)OC(C)(C)C)C(=O)Oc1ccc2c(=O)c(-c3ccc4c(c3)OCCO4)coc2c1 (configuration not stated) | -21.2% | 0.164 µM [falling, full curve, poor fit] | 

Next part:

Row | SMILES | cell number change | AC50 [1] | AC50 [2]
41 | O=C(Cc1ccc(-c2ccccc2)cc1)OCC(=O)N1CCCC1=O | 22.4% |  | 
42 | CCN(CC)CCN1C(=O)C2C(C(=O)Nc3cc(C)cc(C)c3)C3C=CC2(O3)C1C(=O)NC1CCCCC1 (configuration not stated) |  | 0.103 µM [falling, full curve, poor fit] | 
43 | Cc1cc(N(C)C)c(C#N)c(N2CCCCC2)n1 | 1.84% |  | 
44 | CCn1c(=O)cc(OCC(=O)N2CCc3ccccc32)c2ccccc21 | 6.07% | 9.2 µM [rising, partial curve] | 
45 | CC(C)OCCCn1c(=S)[nH]c2cc3c(cc2c1=O)OCO3 | -21.7% | 29.1 µM [falling, single point] | 
46 | CCOc1ccc2nc(Nc3nc(CSc4nnnn4-c4ccccc4)cc(=O)[nH]3)nc(C)c2c1 | 20.3% | 0.164 µM [rising, full curve, poor fit] | 
47 | CCOC(=O)C1(CCCc2ccccc2)CCN(C(=O)Cn2nc(C)nc2C)CC1 | -11% | 3.66 µM [falling, full curve, poor fit] | 
48 | CCn1c(SCc2nc(-c3cccs3)no2)nnc1-c1c[nH]c2ccccc12 |  | 3.66 µM [rising, partial curve] | 2.91 µM [rising, single point]
49 | CCCNCc1cc(OC)c(OCC(=O)Nc2ccccc2)cc1Br | 30.8% | 20.6 µM [rising, partial curve] | 
50 | CCN(c1ccccc1)S(=O)(=O)c1ccc(Cl)c(C(=O)NCc2ccco2)c1 | 1.64% | 7.31 µM [falling, single point] | 
51 | CC(=O)c1cccc(CN2CCCC(C(=O)Nc3cccc(-n4cccn4)c3)C2)c1 (configuration not stated) | -24.4% |  | 
52 | Cc1cccn2c(=O)nc(SCC(=O)c3ccccc3)nc12 | 30.9% | 0.092 µM [rising, full curve] | 0.0731 µM [rising, full curve]
53 | CC(=O)Nc1ccc(Cc2nc3c([nH]2)c(=O)n(C)c(=O)n3C)cc1 | 31.1% |  | 16.4 µM [rising, partial curve, poor fit]
54 | CCC(C(=O)OCn1nnc2ccccc2c1=O)c1ccccc1 (configuration not stated) | -22% | 29.1 µM [falling, single point] | 
55 | COc1ccc2[nH]cc(CCNC(=O)COc3ccc4ccc(=O)oc4c3)c2c1 | 6.98% | 0.411 µM [falling, partial curve, poor fit] | 
56 | [S-]C(=Nc1ccc(Cl)cc1)N[n+]1ccccc1 | 35.2% | 1.3 µM [rising, full curve, poor fit] | 29.1 µM [rising, single point]
57 | O=C(O)c1ccccc1COc1ccccc1Cl | -17.8% |  | 
58 | CCCOP(=O)(c1ccc(N(C)C)cc1)C(Nc1ccccc1)c1ccc(C)cc1 (configuration not stated) | -9.76% | 0.82 µM [rising, full curve, poor fit] | 
59 | O=C(c1cccnc1)N1CCC(Oc2ccc(C(=O)N3CCCCO3)cc2)CC1 | 5.73% | 0.291 µM [falling, single point] | 
